{"source": "paper PMC7586746", "about": "“A putative nuclear copper chaperone promotes plant immunity in Arabidopsis” (Journal of Experimental Botany, 2020)", "test_in_all_cases": "EMSA", "key": {"TGA2": {"target": "T1, TGA2 (UniProt P43273)", "T1 sequence (looked up)": "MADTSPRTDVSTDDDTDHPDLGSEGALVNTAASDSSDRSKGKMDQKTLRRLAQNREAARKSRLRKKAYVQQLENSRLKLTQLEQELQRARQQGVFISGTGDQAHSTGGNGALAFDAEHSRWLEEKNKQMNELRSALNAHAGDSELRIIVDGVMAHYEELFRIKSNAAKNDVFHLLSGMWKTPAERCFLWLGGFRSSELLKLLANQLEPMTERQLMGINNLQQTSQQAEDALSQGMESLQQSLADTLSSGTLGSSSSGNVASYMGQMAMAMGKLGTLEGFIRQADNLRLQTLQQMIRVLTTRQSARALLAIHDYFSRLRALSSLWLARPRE", "settings": "TGA2 alone, faint binding; LightShift EMSA kit: 500 ng GST-tagged protein, 4 fmol biotin-LS7 probe, 20 ul with 1 ul dI-dC, 1 ul 50% glycerol, kit 10x binding buffer, 20 min, 25 C; 6% native gel; recombinant protein; residues 1-330; protein details: GST (N-terminal)"}, "TGA2 + CCP": {"tested_on": "TGA2 + CCP", "settings": "with CCP, substantially more probe bound than TGA2 alone; LightShift EMSA kit: 500 ng GST-tagged protein, 4 fmol biotin-LS7 probe, 20 ul with 1 ul dI-dC, 1 ul 50% glycerol, kit 10x binding buffer, 20 min, 25 C; 6% native gel; recombinant protein; protein details: GST (N-terminal),GST (N-terminal)"}, "[1]": {"tested_on": "CCP (Arabidopsis thaliana)", "settings": "CCP alone, faint binding; LightShift EMSA kit: 500 ng GST-tagged protein, 4 fmol biotin-LS7 probe, 20 ul with 1 ul dI-dC, 1 ul 50% glycerol, kit 10x binding buffer, 20 min, 25 C; 6% native gel; recombinant protein; protein details: GST (N-terminal)"}}, "note": "For at least one entry, the source does not settle the construct or the ends of the probe. For part of these data: The comparison behind a weaker result is the experiment's own reference, which may not be listed here. For part of these data: Protein sequences can lack the tags named with them."}
{"sequence": "TATTTTACTTACGTCATAGATGTGGCGGCA (double strand) [LS7 probe (PR1 promoter)]", "values": [{"measurement": "binding result", "setting": "TGA2", "value": "binds more weakly"}, {"measurement": "binding result", "setting": "TGA2 + CCP", "value": "binds"}, {"measurement": "binding result", "setting": "[1]", "value": "binds more weakly"}]}
